# Laboratory results: article PMC7819943, “Rice protein-binding microarrays: a tool to detect cis-acting elements near promoter regions in rice”
# Sequences of proteins named here, by UniProt entry; tags and fusion partners are left off.
# UniProt Q0JBA9, entry or part of it: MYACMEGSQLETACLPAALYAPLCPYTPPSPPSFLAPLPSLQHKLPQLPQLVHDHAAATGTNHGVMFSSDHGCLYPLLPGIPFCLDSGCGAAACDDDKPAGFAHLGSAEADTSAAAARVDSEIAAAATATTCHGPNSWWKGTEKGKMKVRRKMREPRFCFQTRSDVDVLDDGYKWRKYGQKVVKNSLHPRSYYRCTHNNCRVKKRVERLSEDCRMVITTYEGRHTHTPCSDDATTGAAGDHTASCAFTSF
# The other results are listed elsewhere or left out.
# Molecular target: OsWRKY34 (Oryza sativa, UniProt Q0JBA9 1-250)
# Experiment: protein-binding microarray (RPBM); PBS, 2% BSA, 51.3 ng/ul salmon testes DNA, 50 uM zinc acetate, 200 nM TF, 25 C, 1 h; high values mean tight binding
# Conditions: protein: recombinant; tags: N-terminal polyhistidine and DsRed monomer fusion (pET32a); label: CyDye5-dUTP incorporated in the synthesized complementary strand; 3' TTTTT single-stranded linker to array surface; dsDNA, one strand shown
# Outline: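 A custom Agilent array was converted to double-stranded form by primer extension with Cy5-dUTP and blocked with 2% BSA. Protein at 200 nM in PBS with 2% BSA, salmon testes DNA and 50 µM zinc acetate was applied for 1 h at 25 °C, followed by washing. The proteins were polyhistidine–DsRed N-terminal fusions of transcription factors, expressed in E. coli BL21-CodonPlus and Ni–NTA-purified. The binding signal is per-feature fluorescence intensity (arbitrary units) from an Axon 4000B scanner.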
row,Sequence,binding signal
1,GTTTCTCCACTAGTGTTATTTGCCAGCTAATCATCGACCACGGAGTCACCTAGTGCAG,8520 fluorescence intensity (a.u.)
2,TGACGCCGTTGGTTTTTTTAAACATGTTTGACCATTCGTCCGGAGTCACCTAGTGCAG,8990 fluorescence intensity (a.u.)
3,CGTGCCACCTCGGCGCATGCCTCTCTACGGCTAGCTACTCCGGAGTCACCTAGTGCAG,9020 fluorescence intensity (a.u.)
4,TTAAGCTGCTATTTTTTTTTTGTCTTGTGTTTATACTTTTCGGAGTCACCTAGTGCAG,8720 fluorescence intensity (a.u.)
5,TTTTTTGTCATTGTAATGACATGGTGTTGAGCTGTTGATTCGGAGTCACCTAGTGCAG,8880 fluorescence intensity (a.u.)
6,GGTTTGTTTGGAGGCGCAATGTTTCTCACCCTGTCGTTCCCGGAGTCACCTAGTGCAG,12700 fluorescence intensity (a.u.)
7,TTGCCTATCATCGATCTGTAAATCGAGAATTTTATCTTTTCGGAGTCACCTAGTGCAG,8530 fluorescence intensity (a.u.)
8,AATCATCACCATCCTCGATTCCTCTCCACCGCGCTTTCCGCGGAGTCACCTAGTGCAG,13100 fluorescence intensity (a.u.)
9,TTGTATCTACGTTTGAATTTGTGTTTTATCCATCATACGTCGGAGTCACCTAGTGCAG,8300 fluorescence intensity (a.u.)
10,GTACGCTGAGCTCGTTGATAGATTTGGGCTAGCCCCAACGCGGAGTCACCTAGTGCAG,8480 fluorescence intensity (a.u.)
11,ATCAAATTTTAGTAGGTAACATATACTTCATCCGTTTCACCGGAGTCACCTAGTGCAG,8410 fluorescence intensity (a.u.)
12,AAGCTCACCCATGTTTGTGCCCACACATCTCTCTTCCACCCGGAGTCACCTAGTGCAG,9040 fluorescence intensity (a.u.)
13,CCAACGCATCGCCCCACAAATCACGCCGCCGTCGCCACCCCGGAGTCACCTAGTGCAG,8350 fluorescence intensity (a.u.)
14,GTACTATTACCCATCTTCTTCTTCCTCATTTTCTCCCTCCCGGAGTCACCTAGTGCAG,8120 fluorescence intensity (a.u.)
15,AGAGAGAGACCACATAAATTATACTCTTTTTTTTTGCTGTCGGAGTCACCTAGTGCAG,8810 fluorescence intensity (a.u.)
16,ACCTCTTGCAATTAATAGCTTGACTTTGACTTTGACTTCCCGGAGTCACCTAGTGCAG,14500 fluorescence intensity (a.u.)
17,TATGTTTGGCTATGCTGTCTTTGCATTGATATATCCTGGACGGAGTCACCTAGTGCAG,8140 fluorescence intensity (a.u.)
18,TTCGGAGGGGTTGGCAGCGATGCGACGAGGGCAGGATACACGGAGTCACCTAGTGCAG,8080 fluorescence intensity (a.u.)
19,AATTCTGTCTCATGTAGCCTGTTGATTGTCCTGCTTCTTTCGGAGTCACCTAGTGCAG,8080 fluorescence intensity (a.u.)
20,CATGAGATGTTGCTAGCCAAATAGTCCATCTTCTAAACAGCGGAGTCACCTAGTGCAG,9450 fluorescence intensity (a.u.)
21,GCTCCCATGGCGCTCGTCTCCACCACCGCCACAGTCGCGTCGGAGTCACCTAGTGCAG,11600 fluorescence intensity (a.u.)

# No new results follow: an excerpt of the list.
row,Sequence,binding signal
11,ATCAAATTTTAGTAGGTAACATATACTTCATCCGTTTCACCGGAGTCACCTAGTGCAG,8410 fluorescence intensity (a.u.)
12,AAGCTCACCCATGTTTGTGCCCACACATCTCTCTTCCACCCGGAGTCACCTAGTGCAG,9040 fluorescence intensity (a.u.)
13,CCAACGCATCGCCCCACAAATCACGCCGCCGTCGCCACCCCGGAGTCACCTAGTGCAG,8350 fluorescence intensity (a.u.)
14,GTACTATTACCCATCTTCTTCTTCCTCATTTTCTCCCTCCCGGAGTCACCTAGTGCAG,8120 fluorescence intensity (a.u.)
15,AGAGAGAGACCACATAAATTATACTCTTTTTTTTTGCTGTCGGAGTCACCTAGTGCAG,8810 fluorescence intensity (a.u.)
16,ACCTCTTGCAATTAATAGCTTGACTTTGACTTTGACTTCCCGGAGTCACCTAGTGCAG,14500 fluorescence intensity (a.u.)
17,TATGTTTGGCTATGCTGTCTTTGCATTGATATATCCTGGACGGAGTCACCTAGTGCAG,8140 fluorescence intensity (a.u.)
18,TTCGGAGGGGTTGGCAGCGATGCGACGAGGGCAGGATACACGGAGTCACCTAGTGCAG,8080 fluorescence intensity (a.u.)
19,AATTCTGTCTCATGTAGCCTGTTGATTGTCCTGCTTCTTTCGGAGTCACCTAGTGCAG,8080 fluorescence intensity (a.u.)

# Remaining list, next part:

row,Sequence,binding signal
1,ATTATCCCTCGGACACCCTATGTTACTTTTTCTTTCTATCCGGAGTCACCTAGTGCAG,14100 fluorescence intensity (a.u.)
2,TCATCCGTCCATCTGCCATCTCATCTCATCTCATCTCAACCGGAGTCACCTAGTGCAG,9480 fluorescence intensity (a.u.)
3,ACTCCTGCTGCTCGCCTTGTTGTTTGCGTTATTGTTTGTTCGGAGTCACCTAGTGCAG,11000 fluorescence intensity (a.u.)
4,GATTTTGGGCCAACGCTAGTGTACTTCCCACGGCCCATTTCGGAGTCACCTAGTGCAG,8080 fluorescence intensity (a.u.)
5,CCTCCAGCACCGCACATGTCCGCAACCGCTCTCCTGCAGACGGAGTCACCTAGTGCAG,8880 fluorescence intensity (a.u.)
6,ATACCGCCATCGTCTCTTTCTCGTCGTCGCCGGCGACGCCCGGAGTCACCTAGTGCAG,13400 fluorescence intensity (a.u.)
7,CAGGTTCGTAGCTAGGGTTTGTCTTTGTTTAGGACGGAGTCGGAGTCACCTAGTGCAG,8690 fluorescence intensity (a.u.)
8,ATCTGTCATTACACGGTGGATTTTCAAAACCATTTACTTCCGGAGTCACCTAGTGCAG,9470 fluorescence intensity (a.u.)
9,TTGCTGATGCTGCCTTGGTGATCTTTTTACTTTGTCCTGTCGGAGTCACCTAGTGCAG,9720 fluorescence intensity (a.u.)
10,AAGGATTTGGAAGTGCAGGTAATCTATGGGTTTCTGGTTTCGGAGTCACCTAGTGCAG,9250 fluorescence intensity (a.u.)
11,TCGTCCTCGAGCCCAATACTATACTACTCCTTTGACTCCTCGGAGTCACCTAGTGCAG,9370 fluorescence intensity (a.u.)
12,ATTACATAATTCACGTGTCGAGCAATGCTTATCTTCCATCCGGAGTCACCTAGTGCAG,8990 fluorescence intensity (a.u.)
13,TGATGGTTTCATCGTCATCTGGGGTTGGAAATGATGATCACGGAGTCACCTAGTGCAG,11400 fluorescence intensity (a.u.)
14,CTCTTCCATTTCTACCATTTATCTGAAGCACAGTTTTTTTCGGAGTCACCTAGTGCAG,10000 fluorescence intensity (a.u.)
15,TGCATCCAACCCCGTTCACTTCGATTCGCTCCACGCGCGCCGGAGTCACCTAGTGCAG,11100 fluorescence intensity (a.u.)
16,CGTGTTGCTGGCATTTTTTGTCCCTGAGCTTTTAGTTGTACGGAGTCACCTAGTGCAG,8560 fluorescence intensity (a.u.)
17,TCTTTTCCCTTATTTTTGCCTTTTATTGGATCGGACATGTCGGAGTCACCTAGTGCAG,8840 fluorescence intensity (a.u.)
18,GTACATCATCTTTTCCACCTTTATTTACTGAGTTCGGTTGCGGAGTCACCTAGTGCAG,9280 fluorescence intensity (a.u.)
19,TTTCAAAATATTTGACTCCGTTGATTTTTTTAGCACATGTCGGAGTCACCTAGTGCAG,9070 fluorescence intensity (a.u.)
20,GATCAGGAGCAGTCTCGTTGACTTTGCTAAAATTTTATTCCGGAGTCACCTAGTGCAG,10100 fluorescence intensity (a.u.)
21,GACAATTACTTAGTCCTCACCTACCGTCGACCTCACACGTCGGAGTCACCTAGTGCAG,10200 fluorescence intensity (a.u.)
